Data from patent publication US8349851B2, “JAK kinase modulating compounds and methods of use thereof” (Ambit Biosciences Corp., priority 2009, dated 2013).

What follows are molecules tested on 321 distinct kinases (assay: Kinase selectivity score from competition binding panel). Conditions: kinases with inhibition of 90% or greater divided by 321 distinct kinases tested.

Structure (SMILES) | S Score (at 10 μM)
Cc1cc(Nc2nc(C(O)c3ccc(F)cc3)nc3cc(OCCO)ccc23)n[nH]1 (racemic) [Example 39, (R,S)-2-(2-((4-fluorophenyl)(hydroxy)methyl)-4-(5-methyl-1H-pyrazol-3-ylamino)quinazolin-7-yloxy)ethanol] | B (0.3 < B ≦ 0.4)
Cc1cc(Nc2nc(C(O)c3ccc(F)cc3)nc3cc(OCCCO)ccc23)n[nH]1 (racemic) [Example 40, (R,S)-3-(2-((4-fluorophenyl)(hydroxy)methyl)-4-(5-methyl-1H-pyrazol-3-ylamino)quinazolin-7-yloxy)propan-1-ol] | B (0.3 < B ≦ 0.4)
COCCOc1ccc2c(Nc3cc(C)[nH]n3)nc(C(O)c3ccc(F)cc3)nc2c1 (racemic) [Example 42, (R,S)-(4-fluorophenyl)(7-(2-methoxyethoxy)-4-(5-methyl-1H-pyrazol-3-ylamino)quinazolin-2-yl)methanol] | D (D > 0.5)
Cc1cc(Nc2nc(C(O)c3ccc(F)cc3)nc3cc(OCC(=O)OC(C)(C)C)ccc23)n[nH]1 (racemic) [Example 43, (R,S)-tert-butyl 2-(2-((4-fluorophenyl)(hydroxy)methyl)-4-(5-methyl-1H-pyrazol-3-ylamino)quinazolin-7-yloxy)acetate] | C (0.4 < C ≦ 0.5)
Cc1cc(Nc2nc(C(O)c3ccc(F)cc3)nc3cc(OCC(=O)O)ccc23)n[nH]1 (racemic) [Example 44, (R,S)-2-(2-((4-fluorophenyl)(hydroxy)methyl)-4-(5-methyl-1H-pyrazol-3-ylamino)quinazolin-7-yloxy)acetic acid] | A (A ≦ 0.3)
COC(=O)NC(c1ccc(F)cc1)c1nc(Nc2cc(C)[nH]n2)c2ccccc2n1 (racemic) [Example 45, (R,S)-methyl (4-fluorophenyl)(4-(5-methyl-4H-pyrazol-3-ylamino)quinazolin-2-yl) methylcarbamate] | A (A ≦ 0.3)
Cc1cc(Nc2nc(C(O)c3ccc(F)cc3)nc3c(C)cccc23)n[nH]1 (racemic) [Example 46, (R,S)-(4-fluorophenyl)(8-methyl-4-(5-methyl-1H-pyrazol-3-ylamino)quinazolin-2-yl)methanol] | A (A ≦ 0.3)
Cc1cc(Nc2nc(C(O)c3ccc(F)cc3)nc3cc(F)ccc23)n[nH]1 (racemic) [Example 47, (R,S)-(7-fluoro-4-(5-methyl-1H-pyrazol-3-ylamino)quinazolin-2-yl)(4-fluorophenyl)methanol] | A (A ≦ 0.3)
Cc1cc(Nc2nc(C(O)c3ccc(F)cc3)nc3cc(Cl)ccc23)n[nH]1 (racemic) [Example 52, (R,S) (7-chloro-4-(5-methyl-1H-pyrazol-3-ylamino)quinazolin-2-yl)(4-fluorophenyl)methanol] | A (A ≦ 0.3)
Cc1cc(Nc2nc(C(O)c3ccc(F)cc3)nc3ccc(F)cc23)n[nH]1 (racemic) [Example 54, (R,S)-(6-fluoro-4-(5-methyl-1H-pyrazol-3-ylamino)quinazolin-2-yl)(4-fluorophenyl)methanol] | A (A ≦ 0.3)
OC(c1ccc(F)cc1)c1nc(Nc2cc[nH]n2)c2cc(F)ccc2n1 (racemic) [Example 55, (R,S)-(4-(1H-pyrazol-3-ylamino)-6-fluoroquinazolin-2-yl)(4-fluorophenyl)methanol] | A (A ≦ 0.3)
OC(c1ccc(F)cc1)c1nc(Nc2cc[nH]n2)c2ccc(Br)cc2n1 (racemic) [Example 58, (R,S)-(4-(1H-pyrazol-3-ylamino)-7-bromoquinazolin-2-yl)(4-fluorophenyl)methanol] | A (A ≦ 0.3)
Cc1cc(Nc2nc(C(O)c3ccc(F)cc3)nc3c(F)cccc23)n[nH]1 (racemic) [Example 61, (R,S)-(8-fluoro-4-(5-methyl-1H-pyrazol-3-ylamino)quinazolin-2-yl)(4-fluorophenyl)methanol] | A (A ≦ 0.3)
COc1ccccc1C(O)c1nc(Nc2cc(C)[nH]n2)c2ccccc2n1 (racemic) [Example 63, (R,S)-(2-methoxyphenyl)(4-(5-methyl-1H-pyrazol-3-ylamino)quinazolin-2-yl)methanol] | A (A ≦ 0.3)
Cc1cc(Nc2nc(C(O)c3ccc(F)c(F)c3)nc3ccccc23)n[nH]1 (racemic) [Example 66, (R,S)-(3,4-difluorophenyl)(4-(5-methyl-1H-pyrazol-3-ylamino)quinazolin-2-yl)methanol] | A (A ≦ 0.3)
[2H]C(O)(c1ccc(F)cc1)c1nc(Nc2cc(C)[nH]n2)c2ccccc2n1 (racemic) [Example 72, (R,S) (4-fluorophenyl)(4-(5-methyl-1H-pyrazol-3-ylamino)quinazolin-2-yl)methanol-1-d] | A (A ≦ 0.3)
Cc1cc(Nc2nc(C(=O)c3cccc(F)c3)nc3ccccc23)n[nH]1 [Example 1, (3-fluorophenyl)(4-(5-methyl-1H-pyrazol-3-ylamino)quinazolin-2-yl)methanone] | A (A ≦ 0.3)
O=C(c1cccc(F)c1)c1nc(Nc2cc[nH]n2)c2ccccc2n1 [Example 2, (4-(1H-pyrazol-3-ylamino)quinazolin-2-yl)(3-fluorophenyl)methanone] | A (A ≦ 0.3)
Cc1cc(Nc2nc(C(=O)c3ccc(F)cc3)nc3ccccc23)n[nH]1 [Example 3, (4-fluorophenyl)(4-(5-methyl-1H-pyrazol-3-ylamino)quinazolin-2-yl)methanone] | A (A ≦ 0.3)

Structure (SMILES) | S Score (at 10 μM)
O=C(c1ccc(F)cc1)c1nc(Nc2cc[nH]n2)c2ccccc2n1 [Example 4, (4-(1H-pyrazol-3-ylamino)quinazolin-2-yl)(4-fluorophenyl)methanone] | A (A ≦ 0.3)
COc1ccccc1C(=O)c1nc(Nc2cc[nH]n2)c2ccccc2n1 [Example 5, (4-(1H-pyrazol-3-ylamino)quinazolin-2-yl)(2-methoxyphenyl)methanone] | A (A ≦ 0.3)
Cc1cc(Nc2nc(C(F)(F)c3ccc(F)cc3)nc3ccccc23)n[nH]1 [Example 8, 2-(difluoro(4-fluorophenyl)methyl)-N-(5-methyl-1H-pyrazol-3-yl)quinazolin-4-amine] | A (A ≦ 0.3)
Fc1ccc(C(F)(F)c2nc(Nc3cc[nH]n3)c3ccccc3n2)cc1 [Example 9, 2-(difluoro(4-fluorophenyl)methyl)-N-(1H-pyrazol-3-yl)quinazolin-4-amine] | A (A ≦ 0.3)
Fc1ccc(C(F)(F)c2nc(Nc3cc(C4CC4)[nH]n3)c3ccccc3n2)cc1 [Example 10, N-(5-cyclopropyl-1H-pyrazol-3-yl)-2-(difluoro(4-fluorophenyl)methyl)quinazolin-4-amine] | D (D > 0.5)
Cc1cc(Nc2nc(C(=O)c3ccc(F)cc3)nc3cc(C(F)(F)F)ccc23)n[nH]1 [Example 17, (4-fluorophenyl)(4-(5-methyl-1H-pyrazol-3-ylamino)-7-(trifluoromethyl)quinazolin-2-yl)methanone] | A (A ≦ 0.3)
Cc1cc(Nc2nc(C(=O)c3ccc(F)cc3)nc3cc(F)ccc23)n[nH]1 [Example 19, (7-fluoro-4-(5-methyl-1H-pyrazol-3-ylamino)quinazolin-2-yl)(4-fluorophenyl)methanone] | A (A ≦ 0.3)
Cc1cc(Nc2nc(C(F)(F)c3ccc(F)cc3)nc3cc(F)ccc23)n[nH]1 [Example 20, 2-(difluoro(4-fluorophenyl)methyl)-7-fluoro-N-(5-methyl-1H-pyrazol-3-yl)quinazolin-4-amine] | A (A ≦ 0.3)
Fc1ccc(C(F)(F)c2nc(Nc3cc[nH]n3)c3ccc(F)cc3n2)cc1 [Example 21, 2-(difluoro(4-fluorophenyl)methyl)-7-fluoro-N-(1H-pyrazol-3-yl)quinazolin-4-amine] | A (A ≦ 0.3)
O=C(c1ccc(F)cc1)c1nc(Nc2cc[nH]n2)c2ccc(I)cc2n1 [Example 22, (4-(1H-pyrazol-3-ylamino)-7-iodoquinazolin-2-yl)(4-fluorophenyl)methanone] | A (A ≦ 0.3)
Cc1ccc2c(Nc3cc(C)[nH]n3)nc(C(=O)c3ccc(F)cc3)nc2c1 [Example 24, (4-fluorophenyl)(7-methyl-4-(5-methyl-1H-pyrazol-3-ylamino)quinazolin-2-yl)methanone] | A (A ≦ 0.3)
Cc1ccc2c(Nc3cc(C)[nH]n3)nc(C(F)(F)c3ccc(F)cc3)nc2c1 [Example 26, 2-(difluoro(4-fluorophenyl)methyl)-7-methyl-N-(5-methyl-1H-pyrazol-3-yl)quinazolin-4-amine] | A (A ≦ 0.3)
Cc1ccc2c(Nc3cc[nH]n3)nc(C(F)(F)c3ccc(F)cc3)nc2c1 [Example 27, 2-(difluoro(4-fluorophenyl)methyl)-7-methyl-N-(1H-pyrazol-3-yl)quinazolin-4-amine] | A (A ≦ 0.3)
COc1ccc2c(Nc3cc[nH]n3)nc(C(=O)c3ccc(F)cc3)nc2c1 [Example 28, (4-(1H-pyrazol-3-ylamino)-7-methoxyquinazolin-2-yl)(4-fluorophenyl)methanone] | A (A ≦ 0.3)
COc1ccc2c(Nc3cc(C)[nH]n3)nc(C(=O)c3ccc(F)cc3)nc2c1 [Example 30, (4-fluorophenyl)(7-methoxy-4-(5-methyl-1H-pyrazol-3-ylamino)quinazolin-2-yl)methanone] | A (A ≦ 0.3)
COc1ccc2c(Nc3cc(C)[nH]n3)nc(C(F)(F)c3ccc(F)cc3)nc2c1 [Example 32, 2-(difluoro(4-fluorophenyl)methyl)-7-methoxy-N-(5-methyl-1H-pyrazol-3-yl)quinazolin-4-amine] | A (A ≦ 0.3)
COc1ccc2c(Nc3cc[nH]n3)nc(C(F)(F)c3ccc(F)cc3)nc2c1 [Example 33, 2-(difluoro(4-fluorophenyl)methyl)-7-methoxy-N-(1H-pyrazol-3-yl)quinazolin-4-amine] | A (A ≦ 0.3)
Cc1cc(Nc2nc(C(F)(F)c3ccc(F)cc3)nc3c(F)cccc23)n[nH]1 [Example 34, 2-(difluoro(4-fluorophenyl)methyl)-8-fluoro-N-(5-methyl-1H-pyrazol-3-yl)quinazolin-4-amine] | B (0.3 < B ≦ 0.4)
COc1cccc2c(Nc3cc[nH]n3)nc(C(=O)c3ccc(F)cc3)nc12 [Example 35, (4-(1H-pyrazol-3-ylamino)-8-methoxyquinazolin-2-yl)(4-fluorophenyl)methanone] | A (A ≦ 0.3)
